# According to PubChem BioAssay AID485314 (National Center for Advancing Translational Sciences (NCATS), 2010):
# In all, about 340,000 compounds went through this assay and about 4,500 (1.3%) were called active. Inconclusive means that the source gave no clear call. Such entries were picked first, then a sample of the others. Calls follow the shape of the dose curve; as a rule, active = well fitted inhibition curve with a large enough effect; inconclusive = small, poorly fitted or top-dose-only effect, or another doubt; inactive = no such curve, though single readings can be large or run the other way. Where the call is inconclusive, the potency comes from a doubtful curve fit.
# Biological target: DNA polymerase beta (Homo sapiens) (UniProt P06746)
# Experiment: qHTS Assay for Inhibitors of DNA Polymerase Beta
# Settings: Pol beta primer extension/strand displacement, fluorescence kinetic; activity change, negative = inhibition: at 114 µM (top of the series)
# Outline: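 10 nM enzyme + cpd, 15 min RT; start with substrate 50 nM final; read 0 min and after 10 min RT. Corrected, normalized data; 4-parameter Hill curve fit.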
# % is scaled to controls: 0 for no effect and ±100 for the full control effect; potency is read from the fitted curve at half-maximal effect.
SMILES,Potency,"activity change, negative = inhibition"
O=C(NNC(=O)c1ccccc1C(F)(F)F)c1csc(N2CCOCC2)n1,inactive,–
CCc1ccccc1NC(=O)c1ccc(Cn2nc(N3CCN(c4ccccc4)CC3)ccc2=O)o1,active: 15.8 µM,–
Cc1ccc(S(=O)(=O)Nc2ccc(NC(=O)/C=C/C(=O)O)cc2)cc1,"inconclusive: 28.2 µM [inhibitor, full curve]",–
CCC(=O)N1CCc2cc(CNS(=O)(=O)c3ccc(C(C)C)cc3)ccc21,"inconclusive: 89.1 µM [inhibitor, single point]",–
Cc1ccc2c(c1)NC(=O)c1cccc([N+](=O)[O-])c1CO2,"inconclusive: 50.1 µM [inhibitor, partial curve]",–
O=C(O)c1ccc(NS(=O)(=O)c2ccc3c(c2)C2C=CCC2C(c2ccccc2F)N3)cc1 (stereo unspecified),"inconclusive: 35.5 µM [inhibitor, partial curve]",–
COc1ccc(C[C@H]2CN3C(=NC[C@@H]3Cc3ccccc3)N2CCNC(=O)c2ccc(C)c(Br)c2)cc1,"inconclusive: 79.4 µM [inhibitor, single point]",–
O=P(O)(O)c1cc(-c2ccccc2)oc1-c1ccccc1,"inconclusive: 79.4 µM [inhibitor, partial curve]",–
CCc1ccccc1-n1cnc2cc(C(=O)NC3CCCCCC3)ccc21,inactive,–
Cc1ccc(O)c(-c2cc3ccccc3[nH]2)c1,"inconclusive: 10 µM [inhibitor, single point]",–
Cc1c(Br)c(=O)oc2c(Br)c(O)c(O)cc12,active: 4.47 µM,–
Nc1c(C(=O)NCc2ccco2)c2nc3ccccc3nc2n1CCc1ccccc1,"inconclusive: 79.4 µM [inhibitor, single point]",–
Cc1nn2c3ccccc3n(CC(=O)c3cccs3)c2nc1=O,"inconclusive: 3.55 µM [inhibitor, full curve]",–
O=C1CCCN1CN(C(=O)c1ccccc1)c1ccccc1,"inconclusive: 1 µM [inhibitor, full curve, poor fit]",–
COc1ccc([C@]23Cc4cc(OC)c(OC)cc4C(O2)c2c(c4ccccc4oc2=O)O3)cc1,"inconclusive: 12.6 µM [inhibitor, partial curve]",–
CCOc1ccc(C(=O)Oc2c(Sc3ccccc3)c(C)nn2C(C)(C)C)cc1OCC,"inconclusive: 44.7 µM [inhibitor, partial curve, poor fit]",–
O=C(CSc1cccc(C(F)(F)F)c1)NC(=O)NCc1ccco1,"inconclusive: 20 µM [inhibitor, full curve]",–
Cc1cc(C(=O)CSc2nnc(-c3ccccc3)n2-c2ccccc2)c(C)n1-c1ncn[nH]1,active: 39.8 µM,–
CCN(Cc1ccccc1)C(=O)C1CCN(S(=O)(=O)c2ccc3c(c2)OCCO3)CC1,"inconclusive: 4.47 µM [inhibitor, single point]",–
COc1ccc(-n2nc(C(=O)Nc3ccc(C(C)=O)cc3)nc2-c2ccccc2)cc1,inactive,–
C/C(=N\NC(=O)c1ccc(C(=O)N/N=C(\C)c2ccco2)o1)c1ccco1,"inconclusive: 79.4 µM [inhibitor, single point]",–
CCOC(=O)Cc1nnc(Nc2ccc(C)cc2)c2ccccc12,"inconclusive: 25.1 µM [inhibitor, partial curve, poor fit]",–

SMILES,Potency,"activity change, negative = inhibition"
COc1ccc(N/C(N)=N/c2nc(C)cc(=O)[nH]2)cc1,"inconclusive: 3.55 µM [inhibitor, full curve, poor fit]",–
COc1ccc(N2C(=O)C(CC(=O)Nc3ccccc3)N(CCC3=CCCCC3)C2=O)cc1 (stereo unspecified),"inconclusive: 20 µM [inhibitor, full curve, poor fit]",–
Cc1[nH]c2ccccc2c1C1(O)C(=O)N(Cc2ccccc2)c2ccc(Cl)cc21 (stereo unspecified),inactive,–
CC(C)S(=O)(=O)c1ccc(C(=O)Nc2ccc(F)cc2F)cn1,"inconclusive: 0.794 µM [inhibitor, full curve, poor fit]",–
Cc1cc(C(=O)CSc2nc3ccccc3c(=O)n2C)c(C)n1Cc1ccc2c(c1)OCO2,"inconclusive: 39.8 µM [inhibitor, single point]",–
CC1Sc2ccc(S(=O)(=O)CCC(=O)NCc3ccccc3)cc2NC1=O (stereo unspecified),–,inconclusive: -114% [inhibitor]
O=C(O)C1CCN(C(=O)COc2ccc(Br)cc2)CC1,"inconclusive: 79.4 µM [inhibitor, single point]",–
O=C(O)c1ccc2nc(-c3ccccc3)sc2c1,inactive,–
Cc1nc2ccccc2n1/N=C/c1ccc([N+](=O)[O-])s1,"inconclusive: 50.1 µM [inhibitor, partial curve]",–
COc1ccc(NC(=O)NNS(=O)(=O)c2ccc(OC)c(OC)c2)c(OC)c1,inactive,–
CC(=O)C1=C(c2cccc([N+](=O)[O-])c2)N(C(C)=O)n2c(nnc2-c2ccc(C)cc2)S1,"inconclusive: 100 µM [inhibitor, single point]",–
COc1ccc(Cl)cc1C(=O)Nc1nc2ccccc2[nH]1,active: 44.7 µM,–
CC(C)C(NC(=O)c1ccc2c(c1)OCO2)C(=O)N/N=C/c1cccs1 (stereo unspecified),"inconclusive: 35.5 µM [inhibitor, partial curve, poor fit]",–
CC(=O)Nc1cc(C(=O)N2CCCC2)ccc1S(=O)(=O)c1ccc(C)cc1,"inconclusive: 28.2 µM [inhibitor, single point]",–
O=C(Nc1nc2c(F)cccc2s1)c1ccc(S(=O)(=O)N2CCCc3ccccc32)cc1,inactive,–
COc1ccc2c(c1)c1ncn(CCN3CCCCC3)c(=O)c1n2C,inactive,–
COc1ccc(N2CCN(C(=O)C(C)n3nc(C)c4sc5ccccc5c4c3=O)CC2)cc1 (stereo unspecified),"inconclusive: 22.4 µM [inhibitor, full curve]",–
O=C(Cn1nc(Cc2ccncc2)c2ccccc2c1=O)N1CCc2ccccc2C1,"inconclusive: 39.8 µM [inhibitor, single point]",–
COc1ccc(OCCn2cc(C=O)c3ccccc32)cc1,"inconclusive: 1.12 µM [inhibitor, full curve, poor fit]",–
CC(=O)Nc1ccc(S(=O)(=O)Nc2ncccn2)cc1,inactive,–
Cc1ccc2c(=O)cc(CSc3ncn[nH]3)[nH]c2c1C,"inconclusive: 15.8 µM [inhibitor, single point]",–
Cn1c(=O)c(C#N)c(-c2ccc(F)cc2)c2cc(C(=O)c3cc(Cl)cc(Cl)c3O)cnc21,"inconclusive: 89.1 µM [inhibitor, single point]",–

# Single records, as listed above. Values in the order: Potency	activity change, negative = inhibition
# `CC(=O)Nc1cc(C(=O)N2CCCC2)ccc1S(=O)(=O)c1ccc(C)cc1` reads inconclusive: 28.2 µM [inhibitor, single point]	–
# `COc1ccc(N2CCN(C(=O)C(C)n3nc(C)c4sc5ccccc5c4c3=O)CC2)cc1` (stereo unspecified) reads inconclusive: 22.4 µM [inhibitor, full curve]	–
# `Cc1ccc2c(=O)cc(CSc3ncn[nH]3)[nH]c2c1C` reads inconclusive: 15.8 µM [inhibitor, single point]	–
# `CC(=O)Nc1ccc(S(=O)(=O)Nc2ncccn2)cc1` reads inactive	–

# Remaining list, next part

SMILES,Potency,"activity change, negative = inhibition"
Cc1ccccc1CN1C(=O)c2ccccc2Sc2ccc(C(=O)NCCc3ccccc3)cc21,inactive,–
NC(=O)c1ccccc1N/C=C/C(=O)c1ccccc1,"inconclusive: 89.1 µM [inhibitor, single point]",–
Cc1nc(-c2cc(-c3nc(-c4ccc(C(F)(F)F)cc4)no3)no2)cs1,"inconclusive: 4.47 µM [inhibitor, partial curve, poor fit]",–
CCn1ncc(Cl)c1C(=O)Nc1ccncc1,"inconclusive: 3.55 µM [inhibitor, single point]",–
COc1ccccc1-c1nnc(SCC(=O)Nc2ccc(S(N)(=O)=O)cc2)n1N,–,inconclusive: -35.3% [inhibitor]
CS(=O)(=O)c1ccc2nc(NC(=O)c3cccc([N+](=O)[O-])c3)sc2c1,"inconclusive: 22.4 µM [inhibitor, full curve, poor fit]",–
CC(C)(C)C1(C)OC(=O)C(=Cc2ccc(OCC(=O)Nc3ccccc3)cc2)C(=O)O1 (stereo unspecified),"inconclusive: 0.447 µM [inhibitor, full curve, poor fit]",–
CCOC(=O)NC(=O)CSc1nc2ccccc2[nH]1,active: 50.1 µM,–
Cc1ccc2c(c1)C(=O)OC(C(=O)Nc1ccccc1C(=O)O)C2 (stereo unspecified),inactive,–
CC(=O)c1ccc(OC(=O)CCc2nc3ccccc3s2)cc1,"inconclusive: 63.1 µM [inhibitor, single point]",–
Cc1c(CC(=O)N2CCN(C(=O)C3COc4ccccc4O3)CC2)c(=O)oc2cc(O)cc(O)c12 (stereo unspecified),"inconclusive: 0.1 µM [inhibitor, partial curve, poor fit]",–
Oc1cc2c(cc1O)C1c3ccc(O)c(O)c3OCC1(O)C2 (stereo unspecified),active: 12.6 µM,–
Cc1ccc(CNc2ccc3nnc(-c4ccccc4)n3n2)cc1,active: 56.2 µM,–
O=C(COc1ccc2ccc(=O)oc2c1)Nc1c(Cl)cccc1C(F)(F)F,"inconclusive: 2.51 µM [inhibitor, full curve, poor fit]",–
O=C(COC(=O)Cn1cnc2ccccc21)Nc1cc2c(cc1Cl)C(=O)c1ccccc1C2=O,"inconclusive: 20 µM [inhibitor, partial curve]",–
O=S(=O)(c1ccccc1Br)N1CCC(O)(c2cccnc2)CC1,"inconclusive: 1.78 µM [inhibitor, partial curve, poor fit]",–
COc1cccc(CNC(=O)CCn2cnc3ccccc3c2=O)c1,active: 14.1 µM,–
Cc1ccc2nc(C)cc(SCC(=O)N/N=C/c3ccco3)c2c1,active: 39.8 µM,–
OC(COc1ccc2ccccc2c1)Cn1cncn1 (stereo unspecified),"inconclusive: 31.6 µM [inhibitor, partial curve, poor fit]",–
Cc1ccc(C)c(Nc2nc3ccccc3n3cnnc23)c1,"inconclusive: 79.4 µM [inhibitor, partial curve, poor fit]",–
COC(=O)c1c(NC(=O)C2c3ccccc3Oc3ccccc32)sc2c1CCC(C(C)(C)C)C2 (stereo unspecified),"inconclusive: 89.1 µM [inhibitor, single point]",–
NS(=O)(=O)c1ccc(CNS(=O)(=O)c2cc(C(=O)O)ccc2Cl)cc1,"inconclusive: 15.8 µM [inhibitor, full curve]",–
